Reference: patent US20080274117A1
No constants are given. Whether binding was seen depends on the method and setting. In cells and extracts the contact can be indirect. Some entries that bind do so weakly or less than the wild type. Sequences can lack the tags named with a protein.

Tests used:
[1] = molecular target: T1, human TSSK2 (myc tagged), in vitro translated (human) (UniProt Q96PF2); assay: in-vitro co-immunoprecipitation
T1 sequence: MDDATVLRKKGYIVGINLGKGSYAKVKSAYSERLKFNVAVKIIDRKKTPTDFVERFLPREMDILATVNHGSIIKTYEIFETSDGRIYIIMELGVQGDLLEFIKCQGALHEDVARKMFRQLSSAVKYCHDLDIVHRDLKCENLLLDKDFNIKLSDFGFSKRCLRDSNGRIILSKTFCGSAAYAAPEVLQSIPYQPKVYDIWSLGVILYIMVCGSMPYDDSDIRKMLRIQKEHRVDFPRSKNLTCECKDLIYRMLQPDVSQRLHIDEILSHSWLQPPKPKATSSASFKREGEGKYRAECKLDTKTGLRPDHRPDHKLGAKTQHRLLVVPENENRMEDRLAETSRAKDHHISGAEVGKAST

[2] = molecular target: T1, human TSSK2 (myc tagged), in vitro translated (human); assay: co-immunoprecipitation of in vitro co-translated tagged proteins, SDS-PAGE and blot

B1: human TSKS (HA tagged), in vitro translated (protein, not shown: small tags and cut ends)
chain: MASVVVKTIWQSKEIHEAGDTPTGVESCSQLVPEAPRRVTSRAKGIPKKKKAVSFHGVEPQMSHQPMHWCLNLKRSSACTNVSLLNLAAMEPTDSTGTDSTVEDLSGQLTLAGPPASPTLPWDPDDADITEILSGVNSGLVRAKDSITSLKEKTNRVNQHVQSLQSECSVLSENLERRRQEAEELEGYCIQLKENCWKVTRSVEDAEIKTNVLKQNSALLEEKLRYLQQQLQDETPRRQEAELQEPEEKQEPEEKQEPEEKQKPEAGLSWNSLGPAATSQGCPGPPGSPDKPSRPHGLVPAGWGMGPRAGEGPYVSEQELQKLFTGIEELRREVSSLTARWHQEEGAVQEALRLLGGLGGRVDGFLGQWERAQREQAQTARDLQELRGRADELCTMVERSAVSVASLRSELEGLGPLKPILEEFGRQFQNSRRGPDLSMNLDRSHQGNCARCASQGSQLSTESLQQLLDRALTSLVDEVKQRGLTPACPSCQRLHKKILELERQALAKHVRAEALSSTLRLAQDEALRAKNLLLTDKMKPEEKMATLDHLHLKMCSLHDHLSNLPLEGSTGTMGGGSSAGTPPKQGGSAPEQ
**Q.** With B1 as the binder, how does the binding [1] read?
**A.** binds

**Q.** And the binding [2]?
**A.** binds
